Test results published in PMC11005723, “Development of Complementary Photo‐arginine/lysine to Promote Discovery of Arg/Lys hPTMs Interactomes” (Advanced Science, 2024).
Results are given in words; binding and its absence hold for the method and conditions named. Binding seen in cells or lysates may run through a third protein. Some entries that bind do so weakly or less than the wild type.

The chains behind the UniProt entries cited, without tags or fusion partners.
UniProt Q969R5: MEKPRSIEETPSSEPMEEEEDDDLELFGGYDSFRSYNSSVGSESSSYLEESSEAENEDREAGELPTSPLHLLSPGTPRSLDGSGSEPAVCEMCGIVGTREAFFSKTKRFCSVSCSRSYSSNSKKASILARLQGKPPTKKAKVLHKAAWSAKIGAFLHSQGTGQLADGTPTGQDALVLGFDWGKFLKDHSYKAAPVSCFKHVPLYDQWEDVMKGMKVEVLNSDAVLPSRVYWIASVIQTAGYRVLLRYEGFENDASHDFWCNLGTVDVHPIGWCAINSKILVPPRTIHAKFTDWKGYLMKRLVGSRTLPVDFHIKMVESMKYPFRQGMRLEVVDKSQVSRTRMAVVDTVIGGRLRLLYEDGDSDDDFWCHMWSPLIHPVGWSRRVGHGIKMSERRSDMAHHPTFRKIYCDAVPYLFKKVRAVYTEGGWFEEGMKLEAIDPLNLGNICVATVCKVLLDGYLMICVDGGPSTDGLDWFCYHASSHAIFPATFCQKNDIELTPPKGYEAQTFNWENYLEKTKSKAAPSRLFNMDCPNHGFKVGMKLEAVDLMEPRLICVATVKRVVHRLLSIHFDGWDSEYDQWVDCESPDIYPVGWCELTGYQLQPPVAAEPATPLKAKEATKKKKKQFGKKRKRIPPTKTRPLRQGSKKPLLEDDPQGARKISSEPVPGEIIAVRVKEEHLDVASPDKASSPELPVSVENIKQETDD
UniProt Q09028: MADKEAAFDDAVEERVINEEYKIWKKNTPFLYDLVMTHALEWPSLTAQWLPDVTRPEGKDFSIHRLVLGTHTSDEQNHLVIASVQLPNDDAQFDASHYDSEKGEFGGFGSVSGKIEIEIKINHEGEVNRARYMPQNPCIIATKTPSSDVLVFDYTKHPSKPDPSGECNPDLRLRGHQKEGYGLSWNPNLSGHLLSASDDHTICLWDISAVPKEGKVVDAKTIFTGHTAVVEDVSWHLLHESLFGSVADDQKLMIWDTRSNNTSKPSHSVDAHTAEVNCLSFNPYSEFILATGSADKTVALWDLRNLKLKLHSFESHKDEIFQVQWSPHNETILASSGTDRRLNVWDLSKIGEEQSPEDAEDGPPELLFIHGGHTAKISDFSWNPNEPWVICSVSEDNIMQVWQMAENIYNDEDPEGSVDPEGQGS

How the values were obtained:
Experiment in all cases: cross-linking + pull-down; 10 µM biotinylated diazirine peptide probe incubated with HEK293T nuclear lysate (0.5 mg/mL) at 4 °C for 1 h, 365 nm UV 30 min on ice, proteins precipitated and dissolved in 1% SDS PBS, streptavidin agarose, western blot; only the target purified
[1] = target: T1, H4K5me (probe 6)
T1 sequence (peptide, photo-arginine R(dz) at 3; monomethyl-lysine at 5; K(biotin) at 15): SGRGKGGKGLGKGGK

[2] = target: T2, H4K5me2 (probe 7)
T2 sequence (peptide, photo-arginine R(dz) at 3; dimethyl-lysine at 5; K(biotin) at 15): SGRGKGGKGLGKGGK

[3] = target: T3, H3K4‐R2dz (probe 1)
T3 sequence (peptide, photo-arginine R(dz) at 2; K(biotin) at 14): ARTKQTARKSTGGKA

Row | Substance | binding [1] | binding [2] | binding [3]
1 | Lethal(3)malignant brain tumor‐like protein 2 (L3MBTL2) (from UniProt Q969R5 1-705) | binds | binds | –
2 | Retinoblastoma binding protein 4 (RBBP4), endogenous (from UniProt Q09028 1-425) | – | – | binds
